# In article PMC10307831, “GATA zinc finger protein p66β promotes breast cancer cell migration by acting as a co-activator of Snail”:
# By UniProt entry, the sequences of proteins in these tests, tags left out. Where a name states a change or a piece, a line headed by the entry shows the natural chain unless it says otherwise.
# UniProt O95863: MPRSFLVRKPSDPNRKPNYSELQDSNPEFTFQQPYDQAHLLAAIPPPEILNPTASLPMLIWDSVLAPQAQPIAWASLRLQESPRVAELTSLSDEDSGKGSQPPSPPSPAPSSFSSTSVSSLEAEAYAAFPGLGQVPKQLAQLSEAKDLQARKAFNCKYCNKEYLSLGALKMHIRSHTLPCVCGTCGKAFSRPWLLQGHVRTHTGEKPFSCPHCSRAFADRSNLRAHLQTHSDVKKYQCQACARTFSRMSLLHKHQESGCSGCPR
# The exact form of at least one protein or probe is not confirmed. For some assays here: A negative result means that nothing was seen under these conditions.
# Legend:
# GST-Snail-CT = GST-Snail-CT (UniProt O95863); test: pull-down; conditions: Pull-down: NeutrAvidin beads, 8 h 4 C, washed in IP buffer (50 mM Tris pH 7.5, 150 mM NaCl, 1% Triton X-100); recombinant protein; protein details: N-terminal GST
# GST-Snail-NT = GST-Snail-NT (UniProt O95863); test: pull-down; conditions: Pull-down: NeutrAvidin beads, 8 h 4 C, washed in IP buffer (50 mM Tris pH 7.5, 150 mM NaCl, 1% Triton X-100); recombinant protein; protein details: N-terminal GST
sequence,measurement,setting,value
GGCCCCCTCCTCCCATCCGCG (double strand) [COL6A2-G-box-WT],binding result,GST-Snail-CT,binds
same,binding result,GST-Snail-NT,no binding
